No constants are given. Whether binding was seen depends on the method and setting. Some results given as binding are weak or reduced against the parent protein; the word gives no strength.

For test [1], the target named is T1, hen-egg white lysozyme (hen, UniProt P00698 19-147).
T1 construct: also called HEWL
In words: bilayer interferometry, antibody loaded on the sensor, lysozyme at 1000, 250, 100, 25 and 10 nM.

Test [2] addresses T1, hen-egg white lysozyme. The test is described as follows: yeast surface display of scFv, 240 nM lysozyme.

B1: Anti-HEWL Design 1, human IgG1 (antibody, V domains shown)
VH: EVQLVQSGAEVKKPGATVKISCKVSGYTFSTYWMEWVQQAPGKGLEWMGEVLPGSGSTYYAEKFQGRVTITADTSTDTAYMELSSLRSEDTAVYYCARGDGYFQHWGQGTLVTVSS
VL: DIQMTQSPSSLSASVGDRVTITCRASQSISSNLNWYQQKPGKAPKLLIYYASSLQSGVPSRFSGSGSGTDFTLTISSLQPEDFATYYCQQSNSWPRTFGPGTKVDIKR
notes: also called Des 1; Des1
In the case of B1, the binding entry in the test with hen-egg white lysozyme [1] is on record as “binds”.

B2: Anti-HEWL Design 1, scFv on yeast surface (scFv, V domains shown, not shown: large carriers; small tags and cut ends)
VH: B1 VH
VL: DIQMTQSPSSLSASVGDRVTITCRASQSISSNLNWYQQKPGKAPKLLIYYASSLQSGVPSRFSGSGSGTDFTLTISSLQPEDFATYYCQQSNSWPRTFGPGTKVDIK
B2: the binding result with hen-egg white lysozyme [2] is listed as “binds”.

Values taken from US20250122311A1 (YEDA RESEARCH AND DEVELOPMENT, published 2025).
